Assay [1] has as its target Tead4 (mouse (endogenous in Wnt-Met spheres)) (UniProt Q62296). The assay can be described thus: co-IP.
For assay [2], the target named is wildtype β-catenin (mouse (endogenous in Wnt-Met spheres)) (UniProt Q02248). Briefly: co-IP.

By UniProt entry, the sequences of proteins in these tests, tags left out.
UniProt Q62296: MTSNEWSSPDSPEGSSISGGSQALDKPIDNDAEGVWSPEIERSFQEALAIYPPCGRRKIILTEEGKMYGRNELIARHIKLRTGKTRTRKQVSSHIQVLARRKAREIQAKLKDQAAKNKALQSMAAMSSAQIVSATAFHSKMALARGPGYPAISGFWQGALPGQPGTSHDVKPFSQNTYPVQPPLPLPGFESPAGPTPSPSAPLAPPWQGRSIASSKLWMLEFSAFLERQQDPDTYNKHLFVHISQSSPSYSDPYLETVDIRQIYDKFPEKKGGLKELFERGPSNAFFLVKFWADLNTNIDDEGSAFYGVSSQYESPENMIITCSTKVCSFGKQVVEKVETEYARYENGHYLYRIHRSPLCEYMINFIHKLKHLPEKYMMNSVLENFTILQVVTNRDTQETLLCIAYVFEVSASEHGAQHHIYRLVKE
UniProt Q02248: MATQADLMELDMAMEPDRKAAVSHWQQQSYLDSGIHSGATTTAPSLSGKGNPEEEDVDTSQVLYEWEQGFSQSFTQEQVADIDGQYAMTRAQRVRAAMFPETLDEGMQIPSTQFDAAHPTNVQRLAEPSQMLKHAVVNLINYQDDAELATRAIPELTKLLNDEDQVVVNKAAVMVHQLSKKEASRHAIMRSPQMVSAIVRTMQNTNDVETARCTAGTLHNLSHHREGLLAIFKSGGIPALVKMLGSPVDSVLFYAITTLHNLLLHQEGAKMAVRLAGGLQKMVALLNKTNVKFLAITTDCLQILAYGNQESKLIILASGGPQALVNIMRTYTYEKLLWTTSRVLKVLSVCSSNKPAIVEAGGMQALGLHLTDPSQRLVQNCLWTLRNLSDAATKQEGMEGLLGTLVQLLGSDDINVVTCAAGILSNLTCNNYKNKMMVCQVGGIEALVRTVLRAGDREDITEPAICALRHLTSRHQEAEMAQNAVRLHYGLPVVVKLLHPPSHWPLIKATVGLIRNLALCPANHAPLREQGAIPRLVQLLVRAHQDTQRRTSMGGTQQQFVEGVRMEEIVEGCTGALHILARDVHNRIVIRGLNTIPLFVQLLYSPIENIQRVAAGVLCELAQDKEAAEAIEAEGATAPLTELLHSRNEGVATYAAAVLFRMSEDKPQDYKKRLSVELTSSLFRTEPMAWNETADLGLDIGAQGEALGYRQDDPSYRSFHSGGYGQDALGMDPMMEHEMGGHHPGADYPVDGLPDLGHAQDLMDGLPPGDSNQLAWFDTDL
UniProt P46938: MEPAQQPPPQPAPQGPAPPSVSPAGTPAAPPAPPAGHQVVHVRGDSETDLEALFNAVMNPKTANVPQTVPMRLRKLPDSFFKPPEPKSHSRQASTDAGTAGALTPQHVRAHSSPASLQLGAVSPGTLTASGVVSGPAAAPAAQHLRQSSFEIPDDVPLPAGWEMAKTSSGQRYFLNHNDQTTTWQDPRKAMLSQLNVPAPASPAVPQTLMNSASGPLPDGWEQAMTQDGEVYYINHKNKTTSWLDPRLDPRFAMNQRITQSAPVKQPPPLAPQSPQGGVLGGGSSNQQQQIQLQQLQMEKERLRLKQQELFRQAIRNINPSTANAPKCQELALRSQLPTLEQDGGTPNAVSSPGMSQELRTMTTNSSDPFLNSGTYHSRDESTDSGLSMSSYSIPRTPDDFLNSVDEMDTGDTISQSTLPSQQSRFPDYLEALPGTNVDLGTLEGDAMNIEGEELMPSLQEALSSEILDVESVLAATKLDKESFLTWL

Results are given in words; binding and its absence hold for the method and conditions named. In cells and extracts the contact can be indirect. Some binding calls cover weakened binding; strength is not graded here.

Regarding “Active YAP (Yes-associated protein) (from UniProt P46938 1-488)”, the binding result in assay [1] and in assay [2] was “binds” each time.

Source of the values: publication doi:10.1101/2020.06.05.115881.
